Data as given in the supplement of paper PMC3047530.
± gives the standard deviation of the averaged measurements. Some of the results follow. Many values rest on one well or one pass, so single values are uncertain.

Tested on: Geomyces destructans
Experiment: growth inhibition relative to DMSO control; higher = stronger growth inhibition
Conditions: 10 µM; 15 °C; incubation time 10 days

SMILES | growth inhibition
NCC(=O)CCC(=O)O | -17.7%
COc1cc2c(cc1OC)C1C(=O)c3c(cc4c(c3O)C=CC(C)(C)O4)OC1CO2 (stereo not drawn) [beta-TOXICAROL] | -10.3%
COc1cc2c(cc1OC)[C@@H]1Cc3ccc(OC)c(OC)c3CN1CC2 | -5.09%
NCCC(=O)c1ccccc1N | 1.23%
O=C(CCCN1CCC(O)(c2ccc(Cl)cc2)CC1)c1ccc(F)cc1 | -1.14%
O=C(O)c1cc(O)c2c(c1)C(=O)c1cc(O)cc(O)c1C2=O | -0.323%
Cc1ccc(C)c(OCCCC(C)(C)C(=O)O)c1 | 11.8%
COC(=O)c1c(C)c2c(c(C)c1O)OC(=O)c1c(C)c(Cl)c(O)c(Cl)c1O2 | 0.617%
Nc1nc(O)c2ncn([C@H]3C[C@H](O)[C@@H](CO)O3)c2n1 | -6.78%
CC1(C)[C@@H](O)CC[C@]2(C)[C@H]3C(=O)C=C4[C@@H]5C[C@@](C)(C(=O)O)CC[C@]5(C)CC[C@@]4(C)[C@]3(C)CC[C@@H]12 | 1.91%
NCCS | -10.2%
COCCOC(=O)C1=C(C)NC(C)=C(C(=O)OC(C)C)C1c1cccc([N+](=O)[O-])c1 (stereo not given) | -6.61%
CN1C(C(=O)Nc2ccccn2)=C(O)c2ccccc2S1(=O)=O | -7.36%
COc1c(C(=O)O)ccc2c1CCC(C)(C)O2 [DIHYDRO-beta-TUBAIC ACID] | 8.58%
Cc1c(NC(C)C)c(=O)n(-c2ccccc2)n1C | -7.53%
O=c1cc(-c2ccc(O)cc2)oc2cc(O[C@@H]3O[C@H](CO)[C@@H](O)[C@H](O)[C@H]3O)cc(O)c12 | -1.47%
COC(=O)C1OC(=O)C2OC23C1(C)CCC1C2(C)C(OC(C)=O)CC(OC(C)=O)C(C)(C)C2CC(=O)C13C (stereo not given) | -10.8%
COc1ccc(-c2c(O)c3cc4c(c(CC=C(C)C)c3oc2=O)OC(C)(C)CC4)cc1 | -10.2%
COc1ccc([C@@H]2Sc3ccccc3N(CCN(C)C)C(=O)[C@@H]2OC(C)=O)cc1 | -21.2%
Cc1cn([C@H]2C[C@H](N=[N+]=[N-])[C@@H](CO)O2)c(=O)[nH]c1=O | -3.5%

Already shown: an excerpt of the list.
SMILES | growth inhibition
O=c1cc(-c2ccc(O)cc2)oc2cc(O[C@@H]3O[C@H](CO)[C@@H](O)[C@H](O)[C@H]3O)cc(O)c12 | -1.47%
COC(=O)C1OC(=O)C2OC23C1(C)CCC1C2(C)C(OC(C)=O)CC(OC(C)=O)C(C)(C)C2CC(=O)C13C (stereo not given) | -10.8%
COc1ccc(-c2c(O)c3cc4c(c(CC=C(C)C)c3oc2=O)OC(C)(C)CC4)cc1 | -10.2%

The listing continues:

SMILES | growth inhibition
CC(C[N+](C)(C)C)OC(N)=O (stereo not given) | -25.8%
CC(=O)O[C@H]1C[C@@H](O)C(C)(C)[C@@H]2C[C@@H](OC(C)=O)[C@]3(C)[C@H](CC[C@@]4(C)[C@@H](c5ccoc5)OC(=O)[C@H]5O[C@@]534)[C@@]12C | -6.49%
CC(C)CCC[C@@H](C)[C@H]1CC[C@H]2[C@@H]3CC[C@H]4CC(=O)CC[C@]4(C)[C@H]3CC[C@]12C | -1.89 ± 3.9%
C=C(C)[C@H]1COc2cc3oc(=O)ccc3cc2O1 | -18.7%
CC(=O)O[C@@H]1CC[C@@]2(C)C(C[C@@H](OC(C)=O)[C@@]3(C)C4=CC(=O)O[C@@H](c5ccoc5)[C@]4(C)CCC23)C1(C)C (stereo partly drawn) [3alpha-ACETOXYDIHYDRODEOXYGEDUNIN] | -10.4%
Cc1cccc(Nc2ccncc2S(=O)(=O)NC(=O)NC(C)C)c1 | -15.1%
COc1cc(NS(=O)(=O)c2ccc(N)cc2)nc(OC)n1 | -0.78%
O=C1N=C(O)NC1(c1ccccc1)c1ccccc1 | -11.2%
CC(=O)OCC(=O)[C@@]1(O)[C@H](OC(C)=O)C[C@H]2[C@@H]3CCC4=CC(=O)C=C[C@]4(C)[C@@]3(F)[C@@H](O)C[C@@]21C | -24.2%
C/C=C(/C)C(=O)O[C@H]1Cc2c(ccc3ccc(=O)oc23)OC1(C)C | 3.12%
NC(=O)N1c2ccccc2CC(=O)c2ccccc21 | -42.5%
Cc1nnc(SCC2=C(C(=O)O)N3C(=O)[C@@H](NC(=O)Cn4cnnn4)[C@H]3SC2)s1 | 11.4%
CN(C)c1nc(N)c(C(=O)N=C(N)N)nc1Cl | -6.64%
O=c1[nH]c(=O)n([C@H]2C[C@H](O)[C@@H](CO)O2)cc1C(F)(F)F | -9.49%
COc1ccc2c3c1O[C@H]1C[C@@H](O)C=C[C@@]31CCN(C)C2 | -31.6%
CCCC(=O)O[C@]1(C(=O)CO)CC[C@H]2[C@@H]3CCC4=CC(=O)CC[C@]4(C)[C@H]3[C@@H](O)C[C@@]21C | -10.4%
CC1(C)S[C@@H]2[C@H](NC(=O)COc3ccccc3)C(=O)N2[C@H]1C(=O)O | -7.53%
C[C@]12CCC3c4ccc(OS(=O)(=O)O)cc4CCC3C1CC[C@H]2O (stereo not given in full) | -5.51%
CC(C)NC(=N)NC(=N)Nc1ccc(Cl)cc1 | -34.1%
O=C1OC(=O)[C@H]2[C@@H]1[C@@H]1CC[C@H]2O1 | -26%

SMILES | growth inhibition
NCCCCN | -7.99%
CC1=CC2C(CC1=O)C(C)=CCC2C(C)C (stereo not given) | -6.82%
CC(C)C1COc2cc3oc(=O)ccc3cc2O1 (stereo not given) | -2.34%
CC(C)[C@@H]1CC[C@@H](C)CC1=O | -4.4%
CC(=O)/C=C\[C@@H]1[C@@]2(C)CCCC(C)(C)C2CC[C@@]1(C)O (stereo not given in full) | -3.64%
CCCCCCCCNC(C)C(O)c1ccc(SC(C)C)cc1 (stereo not given) | -8.3%
C[C@H]1O[C@@H](O[C@H]2[C@@H](O)C[C@H](O[C@H]3[C@@H](O)C[C@H](O[C@H]4CC[C@@]5(C)[C@H](CC[C@@H]6[C@@H]5CC[C@]5(C)[C@@H](C7=CC(=O)OC7)CC[C@]65O)C4)O[C@@H]3C)O[C@@H]2C)C[C@H](O)[C@@H]1O | -7.18%
O=C(O)c1cc([N+](=O)[O-])ccc1NCCCc1ccccc1 | -1.58%
S=c1[nH]cnc2nc[nH]c12 | 3.6%
COc1cc2c(cc1OC)[C@@H]1C(=O)c3ccc4c(c3O[C@@H]1CO2)C=CC(C)(C)O4 | -2.83%
CC(=O)O[C@]1(C(C)=O)CC[C@H]2[C@@H]3C=C(C)C4=CC(=O)CC[C@]4(C)[C@H]3CC[C@@]21C | -37%
Cc1c(C)c2c(c(C)c1O)CCC(C)(CCCC(C)CCCC(C)CCCC(C)C)O2 (stereo not drawn) [alpha-TOCHOPHEROL] | -30%
O=C(O)/C=C(\CC(=O)O)C(=O)O | -5.57%
O=c1oc2ccccc2cc1O | 4.64%
C=C1CCC(=O)C(C)CCC2C1CC2(C)C (stereo not given) | -6.67%
OCC(O)C(O)C(O)CO (stereo not given) | -6.51%
CC(=O)OC1CC(OC(C)=O)C2(C)C(CC(OC(C)=O)C3(C)C2CCC2(C)C(c4ccoc4)OC(=O)C4OC423)C1(C)C (stereo not given) | 0.256%
COc1cc(O)c(C(=O)c2ccccc2)cc1O | 13%
CC1=C(C(=O)O)N2C(=O)[C@@H](NC(=O)[C@H](N)c3ccccc3)[C@H]2SC1 | -5.04%
CCC(C)C(=O)OC1[C@@H]2CC3=C4CC(=O)O[C@@H](c5ccoc5)[C@]4(C)CCC3[C@@](C)(C2=O)[C@@H](CC(=O)OC)C1(C)C (stereo not given in full) | -1.59%
